In patent publication US10865388B2, “Method for identifying anti-cancer agents using an in vitro cell culture system that maintains cancer cell stemness” (National Taiwan University, priority 2014, dated 2020):
At least one structure is not confirmed: it was looked up by name or label, or the drawing left a doubt.

Assays:
[1] = test system: lung cancer cells co-cultured with CAFs; test: Image-based high-content analysis of Nanog-positive cells per colony; format: cell-based, human; conditions: CLS1, CL141 and CL152 co-cultured with CAFs
Description: Lung CSCs or cancer cells (200 cells/well) were added to 96-well plates pre-seeded with CAFs (2000 cells/well) and were allowed to attach to the plates overnight. After different treatments, cells were processed following the immunofluorescence protocol with the Nanog (ReproCELL) (1:300) primary antibody (as the cancer stem-cell marker) and the mouse anti-human CD90 FITC-conjugated (5E10, BD Pharmingen) antibody (as the CAF marker) overnight at 4° C. Next, the primary antibodies were incubated with the TRITC-conjugated secondary antibody [goat anti-rabbit IgG (H+L) Conjugate, Invitrogen] for 2 h at room temperature. The nuclei were counterstained with the Hoechst 33342 dye (Invitrogen). To determine the background fluorescence level of the secondary antibody, each plate included control wells containing only the secondary antibody (stained with the Hoechst 33342 dye). Images of the stained cells were acquired using the automated fluorescence microscopy platform.
Image acquisition and analysis were performed as follows. Stained cells were imaged using the high-content analysis platform with a 4× objective. […] The images were analyzed using the MetaXpress® software (Molecular Devices). […] Finally, the TRITC-stained cell count and the total cell count were determined. The stemness of each colony was calculated as the ratio of Nanog-positive (TRITC-stained) cells to total cells. […]

CLS1/CAF cells = test: Xenograft tumor formation in SCID mice; format: in vivo; conditions: for tumorigenicity of CLS1 cells: 10^3 cells injected into NOD/SCID mice
[2] = test system: IGF1R-p/IGF1R, AKT-p/AKT and Nanog; test: Western blot analysis of IGF1R, AKT and Nanog; format: cell-based, human; conditions: LY294002 at 1, 5, and 10 μM/ml
Description: The detailed procedures were performed as described in Zoller, Nat Rev Cancer 11:254-267 (2011). The primary antibodies for p-IGF1R (Y1316, 6113S; 1:1000), p-AKT (D9E; 1:1000), AKT (927L; 1:1000) and Nanog (D73G4; 1:1000) were purchased from Cell Signaling Technology, Inc., and the primary antibody for IGF1R (C-20; 1:1000) was purchased from Santa Cruz. Monoclonal mouse anti-β-actin (Chemicon, Millipore; 1:5000) was used as a loading control. The membranes were then washed three times with TBST, followed by incubation with horseradish peroxidase (HRP)-conjugated secondary antibody (1:5,000) in TBST/2% skim milk. Bound antibody was detected using the Enhanced Chemiluminescence System (Santa Cruz, Calif.). Chemiluminescent signals were captured using the Fujifilm LAS 3000 system (Fujifilm, Tokyo, Japan). All experiments were performed at least three times in duplicate.

SMILES	Nanog-positive cells in each colony ([1]; A549, EKVX, antibody 1 μg/ml, inhibitors 1 μM/ml (FIG. 6a))	tumorigenicity of CLS1 cells (CLS1/CAF cells)	tumor weight of the CLS1/CAF cells (CLS1/CAF cells; 1,000 CLS1/CAF cells, AEW541 5 μM/ml, N=5 mice each group (FIG. 17))	number of Nanog-positive cells per colony ([1]; PI3K inhibitor)	IGF-II-induced Akt-phosphorylation and Nanog expression [2]
Nc1ncnc2c1c(-c1cccc(OCc3ccccc3)c1)cn2[C@H]1C[C@@H](CN2CCC2)C1 [AEW541]	significantly inhibited	significantly reduced	decreased		
O=c1cc(N2CCOCC2)oc2c(-c3ccccc3)cccc12 [LY294002]		reduce the tumorigenicity		significantly reduced	inhibited
